Results reported in patent US11358989B2, “Apratyramide therapeutic agents and methods of treatment” (University of Florida Research Foundation, Incorporated, priority 2017, dated 2022).

System: HaCaT cells
Assay: Transcriptome profiling of HaCaT cells (Human Transcriptome Array 2.0, IPA)
Type: cell-based
Conditions: 30 μM, 12 h
Description: HaCaT cells were seeded in 6-well plates at a density of 2×10^5 per well and incubated further for 24 h in supplement-free medium prior to treatment. RNA was isolated at 3, 12 or 16 h post treatment using the RNeasy mini kit (QIAGEN, Valencia, Calif.). Total RNA was quantified using NanoDrop 2000. From 2 μg of total RNA, cDNA synthesis was done using SuperScript II Reverse Transcriptase (Invitrogen, Carlsbad, Calif.) and oligo (dT) (Invitrogen).
RNA was analyzed using a NanoDrop spectrophotometer and Agilent 2100 Bioanalyzer to determine the RNA concentration and quality, respectively. RNA samples were processed using the GeneChip WT PLUS Reagent Kit (Affymetrix, Santa Clara, Calif.) according to the manufacturer's instruction. In brief, 250 ng of RNA were used for cDNA synthesis by reverse transcription, and the cDNA was utilized as a template for the biotin-labeled RNA prepared by in vitro transcription reaction. The labeled RNA was further purified, fragmented, and hybridized with rotation at 45° C. for 16 h to the GeneChip™ Human Transcriptome Array 2.0. The arrays were washed and stained using the GeneChip Hybridization Wash and Stain kit on an Affymetrix Fluidics Station 450. The chips were scanned using a GeneChip 7G Scanner. […]

CC[C@H](C)[C@@H](OC(=O)[C@H](Cc1ccc(OC)cc1)N(C)C)C(=O)N[C@H](C(=O)N(C)[C@@H](Cc1ccc(O)cc1)C(=O)N(C)[C@@H](Cc1ccc(O)cc1)C(=O)OC)C(C)C [Compound 1, Apratyramide]
number of differentially expressed genes (P<0.05 FDR corrected, fold change >1.5 or <0.67): 371 | top canonical pathway by IPA analysis (p-value 1.45×10^−16): unfolded protein response (UPR)
